Holding throughout (assay): co-IP; HEK293T/17 cells in DMEM with 10% CSS co-transfected with FOXA1-V5 + AR (10 nM R1881 for 4 h) or FOXA1-V5 + AR-V7; lysis in 1X TESH buffer with 0.15 M NaCl; about 250 ug protein with 2 ug AR441, FOXA1 antibody or control IgG, 1 h at 4 °C; protein A/G magnetic beads; elution with RIPA, then SDS sample buffer; western blot with AR441 and FOXA1 antibody; both directions of IP

By UniProt entry, the sequences of proteins in these tests, tags left out. Where a name states a change or a piece, a line headed by the entry shows the natural chain unless it says otherwise. Chains listed by the source or under a name are the forms on record and can include a tag or linker.
UniProt P10275: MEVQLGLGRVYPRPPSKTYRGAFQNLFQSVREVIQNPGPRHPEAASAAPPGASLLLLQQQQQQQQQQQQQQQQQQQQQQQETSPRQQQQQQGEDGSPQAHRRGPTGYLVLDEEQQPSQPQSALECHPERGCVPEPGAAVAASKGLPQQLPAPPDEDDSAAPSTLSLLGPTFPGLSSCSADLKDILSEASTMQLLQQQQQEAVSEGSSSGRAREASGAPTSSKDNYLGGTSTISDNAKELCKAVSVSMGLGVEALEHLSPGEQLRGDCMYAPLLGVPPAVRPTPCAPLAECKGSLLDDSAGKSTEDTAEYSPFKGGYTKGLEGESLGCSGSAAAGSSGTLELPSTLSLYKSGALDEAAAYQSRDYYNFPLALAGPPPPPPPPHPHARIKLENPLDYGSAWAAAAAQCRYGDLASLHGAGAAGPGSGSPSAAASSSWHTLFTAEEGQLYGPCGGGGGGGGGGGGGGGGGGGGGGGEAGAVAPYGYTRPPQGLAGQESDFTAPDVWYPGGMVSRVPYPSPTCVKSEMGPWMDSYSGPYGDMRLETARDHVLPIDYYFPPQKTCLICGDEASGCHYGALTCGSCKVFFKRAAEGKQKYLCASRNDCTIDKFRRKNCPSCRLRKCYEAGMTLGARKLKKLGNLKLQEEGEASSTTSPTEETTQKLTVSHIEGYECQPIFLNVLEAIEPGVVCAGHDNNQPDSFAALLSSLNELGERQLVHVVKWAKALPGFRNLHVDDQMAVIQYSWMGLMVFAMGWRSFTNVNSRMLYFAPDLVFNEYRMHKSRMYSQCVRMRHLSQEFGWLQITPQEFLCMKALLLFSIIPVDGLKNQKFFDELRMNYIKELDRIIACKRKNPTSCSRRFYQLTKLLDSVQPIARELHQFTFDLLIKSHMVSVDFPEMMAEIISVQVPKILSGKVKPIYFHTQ
androgen receptor splice variant AR-V7 (P10275-3, form named): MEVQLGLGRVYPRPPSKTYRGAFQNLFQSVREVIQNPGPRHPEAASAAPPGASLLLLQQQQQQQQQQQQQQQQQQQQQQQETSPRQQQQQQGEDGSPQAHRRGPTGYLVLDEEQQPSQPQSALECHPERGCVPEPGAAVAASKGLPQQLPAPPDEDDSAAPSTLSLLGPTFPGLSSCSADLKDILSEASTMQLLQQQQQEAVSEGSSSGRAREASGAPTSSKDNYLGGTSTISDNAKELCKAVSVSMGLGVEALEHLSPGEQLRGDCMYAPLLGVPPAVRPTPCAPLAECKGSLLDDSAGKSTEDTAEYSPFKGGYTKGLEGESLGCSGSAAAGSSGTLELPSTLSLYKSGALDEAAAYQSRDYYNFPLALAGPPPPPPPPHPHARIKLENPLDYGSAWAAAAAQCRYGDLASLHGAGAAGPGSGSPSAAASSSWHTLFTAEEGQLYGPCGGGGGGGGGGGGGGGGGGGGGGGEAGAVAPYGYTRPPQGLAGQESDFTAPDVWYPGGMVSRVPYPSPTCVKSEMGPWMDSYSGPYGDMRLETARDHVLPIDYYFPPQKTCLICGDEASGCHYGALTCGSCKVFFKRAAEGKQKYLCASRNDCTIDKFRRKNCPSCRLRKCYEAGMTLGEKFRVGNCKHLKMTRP

The target in one assay is T1, FOXA1-V5 (UniProt P55317).
T1 sequence: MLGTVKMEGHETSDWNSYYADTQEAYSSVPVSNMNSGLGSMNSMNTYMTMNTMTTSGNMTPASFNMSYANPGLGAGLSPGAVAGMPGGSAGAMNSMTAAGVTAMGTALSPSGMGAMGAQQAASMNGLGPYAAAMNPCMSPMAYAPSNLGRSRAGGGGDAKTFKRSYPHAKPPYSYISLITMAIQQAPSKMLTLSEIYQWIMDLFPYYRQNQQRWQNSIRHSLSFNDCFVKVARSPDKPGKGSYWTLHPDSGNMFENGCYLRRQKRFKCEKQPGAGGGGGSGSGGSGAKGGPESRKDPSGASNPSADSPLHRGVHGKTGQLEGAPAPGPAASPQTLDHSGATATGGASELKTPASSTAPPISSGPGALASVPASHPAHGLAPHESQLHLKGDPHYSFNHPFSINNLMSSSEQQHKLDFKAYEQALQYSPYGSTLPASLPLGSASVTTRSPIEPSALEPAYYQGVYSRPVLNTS

Assay [1] deals with androgen receptor (AR), full length (UniProt P10275).
Assay [2] has as its target androgen receptor splice variant AR-V7 (UniProt P10275).

No constants are given. Whether binding was seen depends on the method and setting. In cells and extracts the contact can be indirect. Some binding calls cover weakened binding; strength is not graded here. Where a sequence is shown, tags or fusion partners need not be part of it.

Take “androgen receptor splice variant AR-V7 (from UniProt P10275-3 1-644)”: the binding entry with FOXA1-V5 is recorded as “binds”. The same measure, in the same setting: to “androgen receptor (AR), full length (from UniProt P10275 1-920)” belongs “binds”.

B1: FOXA1-V5 (protein, UniProt P55317 1-472)
chain: T1 sequence
As for B1, the binding entry in assay [1] and in assay [2] was “binds” each time.

Source of the values: PMC8969163.
